# The supplement of paper PMC8728848
# Some of the results follow.
# B1: AT1G77380(17) (Arabidopsis thaliana), Q39134 (protein)
# chain: MVQNHQTVLAVDMPQTGGSKYLDDDGKNKRTGSVWTASAHIITAVIGSGVLSLAWATAQLGWLAGPVVMLLFSAVTYFTSSLLAACYRSGDPISGKRNYTYMDAVRSNLGGVKVTLCGIVQYLNIFGVAIGYTIASAISMMAIKRSNCFHKSGGKDPCHMNSNPYMIAFGLVQILFSQIPDFDQLWWLSILAAVMSFTYSSAGLALGIAQVVVNGKVKGSLTGISIGAVTETQKIWRTFQALGDIAFAYSYSIILIEIQDTVKSPPSEEKTMKKATLVSVSVTTMFYMLCGCMGYAAFGDLSPGNLLTGFGFYNPYWLLDIANAAIVIHLIGAYQVYCQPLFAFIEKQASIQFPDSEFIAKDIKIPIPGFKPLRLNVFRLIWRTVFVIITTVISMLLPFFNDVVGLLGALGFWPLTVYFPVEMYIAQKKIPRWSTRWVCLQVFSLGCLVVSIAAAAGSIAGVLLDLKSYKPFRSEY
# Experiments:
# Experiment in all cases: glycan array binding signal (z-score within array); higher = stronger binding
# Conditions in all cases: glycan notation: IUPAC condensed, linker removed
# [1] = target: Fuc(a1-2)Gal
# How it was run: (§1)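 The Consortium for Functional Glycomics database supplied 3228 glycan arrays, of which those lacking an available protein sequence were dropped. The binding signal, a within-array Z-score, was averaged across arrays of the same protein sequence and across linkers. Negative scores can be read as non-binding.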
# [2] = target: Fuc(a1-2)Gal(b1-3)GalNAc
# How it was run: as §1
# [3] = target: Fuc(a1-2)Gal(b1-3)GalNAc(a1-3)[Fuc(a1-2)]Gal(b1-4)Glc
# How it was run: as §1
# [4] = target: Fuc(a1-2)Gal(b1-3)GalNAc(a1-3)[Fuc(a1-2)]Gal(b1-4)GlcNAc
# How it was run: as §1
# [5] = target: Fuc(a1-2)Gal(b1-3)GalNAc(b1-3)Gal
# How it was run: as §1
# [6] = target: Fuc(a1-2)Gal(b1-3)GalNAc(b1-3)Gal(a1-4)Gal(b1-4)Glc
# How it was run: as §1
# [7] = target: Fuc(a1-2)Gal(b1-3)GalNAc(b1-4)[Neu5Ac(a2-3)]Gal(b1-4)Glc
# How it was run: as §1
# [8] = target: Fuc(a1-2)Gal(b1-3)GlcNAc
# How it was run: as §1
# [9] = target: Fuc(a1-2)Gal(b1-3)GlcNAc(b1-2)Man(a1-3)[Fuc(a1-2)Gal(b1-3)GlcNAc(b1-2)Man(a1-6)]Man(b1-4)GlcNAc(b1-4)GlcNAc
# How it was run: as §1
# [10] = target: Fuc(a1-2)Gal(b1-3)GlcNAc(b1-2)Man(a1-3)[Fuc(a1-2)Gal(b1-3)GlcNAc(b1-2)Man(a1-6)]Man(b1-4)GlcNAc(b1-4)[Fuc(a1-6)]GlcNAc
# How it was run: as §1
# [11] = target: Fuc(a1-2)Gal(b1-3)GlcNAc(b1-3)Gal(b1-4)Glc
# How it was run: as §1
# [12] = target: Fuc(a1-2)Gal(b1-3)GlcNAc(b1-3)GalNAc
# How it was run: as §1
# [13] = target: Fuc(a1-2)Gal(b1-3)GlcNAc(b1-3)[Fuc(a1-2)Gal(b1-3)GlcNAc(b1-6)]GalNAc
# How it was run: as §1
# [14] = target: Fuc(a1-2)Gal(b1-3)GlcNAc(b1-3)[Gal(b1-4)GlcNAc(b1-6)]Gal(b1-4)Glc
# How it was run: as §1
# [15] = target: Fuc(a1-2)Gal(b1-3)GlcNAc(b1-3)[Neu5Ac(a2-6)Gal(b1-4)GlcNAc(b1-6)]Gal(b1-4)Glc
# How it was run: as §1
# [16] = target: Fuc(a1-2)Gal(b1-3)GlcNAc6S
# How it was run: as §1
# [17] = target: Fuc(a1-2)Gal(b1-3)[Fuc(a1-4)]GlcNAc
# How it was run: as §1
# [18] = target: Fuc(a1-2)Gal(b1-3)[Fuc(a1-4)]GlcNAc(b1-2)Man(a1-3)[Fuc(a1-2)Gal(b1-3)[Fuc(a1-4)]GlcNAc(b1-2)Man(a1-3)]Man(b1-4)GlcNAc(b1-4)GlcNAc
# How it was run: as §1
# [19] = target: Fuc(a1-2)Gal(b1-3)[Fuc(a1-4)]GlcNAc(b1-2)Man(a1-3)[Fuc(a1-2)Gal(b1-3)[Fuc(a1-4)]GlcNAc(b1-2)Man(a1-6)]Man(b1-4)GlcNAc(b1-4)[Fuc(a1-6)]GlcNAc(b1-4)[Fuc(a1-6)]GlcNAc
# How it was run: as §1
# [20] = target: Fuc(a1-2)Gal(b1-3)[Fuc(a1-4)]GlcNAc(b1-3)[Fuc(a1-3)[Gal(b1-4)]GlcNAc(b1-6)]Gal(b1-4)Glc
# How it was run: as §1
# [21] = target: Fuc(a1-2)Gal(b1-3)[Fuc(a1-4)]GlcNAc(b1-3)[Gal(b1-4)GlcNAc(b1-6)]Gal(b1-4)Glc
# How it was run: as §1
# [22] = target: Fuc(a1-2)Gal(b1-4)Fuc(a1-3)]GlcNAc(b1-2)Man(a1-3)[Fuc(a1-2)Gal(b1-4)[Fuc(a1-3)]GlcNAc(b1-2)Man(a1-6)]Man(b1-4)GlcNAc(b1-4)GlcNAc
# How it was run: as §1
# [23] = target: Fuc(a1-2)Gal(b1-4)Glc
# How it was run: as §1
# [24] = target: Fuc(a1-2)Gal(b1-4)Glc6S
# How it was run: as §1
# [25] = target: Fuc(a1-2)Gal(b1-4)GlcNAc
# How it was run: as §1
# [26] = target: Fuc(a1-2)Gal(b1-4)GlcNAc(b1-2)Man
# How it was run: as §1
# [27] = target: Fuc(a1-2)Gal(b1-4)GlcNAc(b1-2)Man(a1-3)[Fuc(a1-2)Gal(b1-4)GlcNAc(b1-2)Man(a1-6)]Man(b1-4)GlcNAc(b1-4)GlcNAc
# How it was run: as §1
# [28] = target: Fuc(a1-2)Gal(b1-4)GlcNAc(b1-2)Man(a1-3)[Fuc(a1-2)Gal(b1-4)GlcNAc(b1-2)Man(a1-6)]Man(b1-4)GlcNAc(b1-4)[Fuc(a1-6)]GlcNAc
# How it was run: as §1
# [29] = target: Fuc(a1-2)Gal(b1-4)GlcNAc(b1-2)[Fuc(a1-2)Gal(b1-4)GlcNAc(b1-4)]Man(a1-3)[Fuc(a1-2)Gal(b1-4)GlcNAc(b1-2)Man(a1-6)]Man(b1-4)GlcNAc(b1-4)GlcNAc
# How it was run: as §1
# [30] = target: Fuc(a1-2)Gal(b1-4)GlcNAc(b1-3)Gal(b1-4)GlcNAc
# How it was run: as §1
binder,measurement,setting,value
B1,glycan array binding signal (z-score),[1],2.99
same,glycan array binding signal (z-score),[2],-0.359
same,glycan array binding signal (z-score),[3],0.048
same,glycan array binding signal (z-score),[4],2.89
same,glycan array binding signal (z-score),[5],0.084
same,glycan array binding signal (z-score),[6],0.14
same,glycan array binding signal (z-score),[7],-0.032
same,glycan array binding signal (z-score),[8],-0.752
same,glycan array binding signal (z-score),[9],-0.686
same,glycan array binding signal (z-score),[10],-0.155
same,glycan array binding signal (z-score),[11],-0.305
same,glycan array binding signal (z-score),[12],-0.512
same,glycan array binding signal (z-score),[13],-0.692
same,glycan array binding signal (z-score),[14],-0.428
same,glycan array binding signal (z-score),[15],-0.856
same,glycan array binding signal (z-score),[16],-0.056
same,glycan array binding signal (z-score),[17],-0.771
same,glycan array binding signal (z-score),[18],0.75
same,glycan array binding signal (z-score),[19],-0.683
same,glycan array binding signal (z-score),[20],-0.82
same,glycan array binding signal (z-score),[21],-0.383
same,glycan array binding signal (z-score),[22],0.751
same,glycan array binding signal (z-score),[23],0.457
same,glycan array binding signal (z-score),[24],-0.205
same,glycan array binding signal (z-score),[25],0.26
same,glycan array binding signal (z-score),[26],-0.431
same,glycan array binding signal (z-score),[27],-0.43
same,glycan array binding signal (z-score),[28],-0.797
same,glycan array binding signal (z-score),[29],-0.759
same,glycan array binding signal (z-score),[30],-0.766

# Pulled one by one from above, 2 records:
binder,measurement,setting,value
B1,glycan array binding signal (z-score),[11],-0.305
same,glycan array binding signal (z-score),[17],-0.771
